Literature values in US11890361B2, “Oral care composition comprising cannabinoids” (APIRX Pharmaceutical USA, LLC, priority 2014, dated 2024).
Some entries share one result that the patent states for a list of compounds. Some ranges recur; such a range may be that of the whole group of compounds.

System: various Staphylococcus aureus strains

C=C(C)[C@@H]1CCC(C)=C[C@H]1c1c(O)cc(CCCCC)cc1O [CBD]
minimum inhibitory concentration: 0.5 to 2 µg/mL
